According to doi:10.1101/2021.10.15.464507:
No constants are given. Whether binding was seen depends on the method and setting. Binding seen in cells or lysates may run through a third protein. Some results given as binding are weak or reduced against the parent protein; the word gives no strength. Where a sequence is shown, tags or fusion partners need not be part of it.

Sequences of proteins named here, by UniProt entry; tags and fusion partners are left off.
UniProt P35222: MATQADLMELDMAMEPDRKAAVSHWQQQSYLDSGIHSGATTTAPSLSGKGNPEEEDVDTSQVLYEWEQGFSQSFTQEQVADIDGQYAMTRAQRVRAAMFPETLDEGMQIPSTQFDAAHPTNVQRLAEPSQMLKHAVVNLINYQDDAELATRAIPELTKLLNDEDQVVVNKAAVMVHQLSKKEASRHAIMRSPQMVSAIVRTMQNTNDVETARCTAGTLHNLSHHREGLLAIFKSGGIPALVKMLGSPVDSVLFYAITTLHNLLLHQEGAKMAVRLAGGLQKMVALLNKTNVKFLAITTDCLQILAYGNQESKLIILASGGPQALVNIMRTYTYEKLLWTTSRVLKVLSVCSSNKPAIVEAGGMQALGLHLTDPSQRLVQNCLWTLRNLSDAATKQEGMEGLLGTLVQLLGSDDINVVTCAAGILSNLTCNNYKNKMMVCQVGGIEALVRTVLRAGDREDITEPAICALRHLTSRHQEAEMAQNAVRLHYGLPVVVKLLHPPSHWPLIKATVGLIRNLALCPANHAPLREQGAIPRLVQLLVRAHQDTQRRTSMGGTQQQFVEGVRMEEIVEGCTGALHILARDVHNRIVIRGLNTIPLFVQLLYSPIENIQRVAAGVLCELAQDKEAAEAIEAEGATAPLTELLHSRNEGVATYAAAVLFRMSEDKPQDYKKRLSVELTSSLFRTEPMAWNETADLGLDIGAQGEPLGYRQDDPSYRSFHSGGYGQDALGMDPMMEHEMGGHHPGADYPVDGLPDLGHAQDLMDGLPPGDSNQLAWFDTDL

Target: NL-β-catenin (β-catenin with an N-terminal NanoLuc) (UniProt P35222)
Experiment: FRET or BRET

binding: binds
B1: PTK7-HT (PTK7 with a C-terminal HaloTag) (receptor, UniProt Q13308 31-1070)
chain: AIVFIKQPSSQDALQGRRALLRCEVEAPGPVHVYWLLDGAPVQDTERRFAQGSSLSFAAVDRLQDSGTFQCVARDDVTGEEARSANASFNIKWIEAGPVVLKHPASEAEIQPQTQVTLRCHIDGHPRPTYQWFRDGTPLSDGQSNHTVSSKERNLTLRPAGPEHSGLYSCCAHSAFGQACSSQNFTLSIADESFARVVLAPQDVVVARYEEAMFHCQFSAQPPPSLQWLFEDETPITNRSRPPHLRRATVFANGSLLLTQVRPRNAGIYRCIGQGQRGPPIILEATLHLAEIEDMPLFEPRVFTAGSEERVTCLPPKGLPEPSVWWEHAGVRLPTHGRVYQKGHELVLANIAESDAGVYTCHAANLAGQRRQDVNITVATVPSWLKKPQDSQLEEGKPGYLDCLTQATPKPTVVWYRNQMLISEDSRFEVFKNGTLRINSVEVYDGTWYRCMSSTPAGSIEAQARVQVLEKLKFTPPPQPQQCMEFDKEATVPCSATGREKPTIKWERADGSSLPEWVTDNAGTLHFARVTRDDAGNYTCIASNGPQGQIRAHVQLTVAVFITFKVEPERTTVYQGHTALLQCEAQGDPKPLIQWKGKDRILDPTKLGPRMHIFQNGSLVIHDVAPEDSGRYTCIAGNSCNIKHTEAPLYVVDKPVPEESEGPGSPPPYKMIQTIGLSVGAAVAYIIAVLGLMFYCKKRCKAKRLQKQPEGEEPEMECLNGGPLQNGQPSAEIQEEVALTSLGSGPAATNKRHSTSDKMHFPRSSLQPITTLGKSEFGEVFLAKAQGLEEGVAETLVLVKSLQSKDEQQQLDFRRELEMFGKLNHANVVRLLGLCREAEPHYMVLEYVDLGDLKQFLRISKSKDEKLKSQPLSTKQKVALCTQVALGMEHLSNNRFVHKDLAARNCLVSAQRQVKVSALGLSKDVYNSEYYHFRQAWVPLRWMSPEAILEGDFSTKSDVWAFGVLMWEVFTHGEMPHGGQADDEVLADLQAGKARLPQPEGCPSKLYRLMQRCWALSPKDRPSFSEIASALGDSTVDSKP
modifications: HaloTag 618 ligand on the HaloTag
